Assay results reported in patent US12622915B2, “Methods of treating PDE IV-mediated diseases or conditions” (Vanda Pharmaceuticals Inc., priority 2020, dated 2026).
At least one compound was matched to its structure with a doubt left.

Tested on: IMQ induced psoriasis
Settings: vs IMQ control
Experimental: Test Item Details • 1. Dexamethasone Cat. or Batch no.: BCBM4557V (sigma) • Vehicle for dexamethasone (Veh.1): acetone:ethanol (1:1) • Dose: 0.1 mg/ear & 0.25 mg in back skin • Dose volume: 20 μL/ear & 50 μL on back skin • 2. Crisaborole: PZ0037 (Sigma) • Vehicle (Veh.1): acetone:ethanol (1:1) • Dose: 0.1 mg/ear & 0.25 mg in back skin • Dose volume: 20 μL/ear, 50 μL on back skin • 3. Compound of Formula (I) • Vehicle (Veh.1): acetone:ethanol (1:1) • Dose: 0.1 mg/ear & 0.25 mg in back skin • Dose volume: 20 μL/ear, 50 μL on back skin Dexamethasone and Test Item Preparation and Application: • Strength=5 mg/ml
Application=100 μg/20 pit per each ear+250 μg/50 μL on the back G2 to G4 receive Dexamethasone, Crisaborole or test item: Daily topical treatment (D0-D6): 0.1 mg in 20 μl per ear x both the ears+0.25 mg in 50 μl (on the back) 6-8 hrs after IMQ application.
Disease Induction: Application of 5% IMQ cream 40 mg (back) and 5 mg (per ear—Inner surface) daily from day 0-6. […]
The body weight is recorded individually for all animals at receipt, day of randomization, prior to treatment, and once in two days thereafter. […]
MPO analysis: Snap frozen ear tissue samples are homogenized in 1× assay buffer provided in the kit. […] The samples are centrifuged at 12,000 g for 10 minutes in a refrigerated centrifuge and the resulting supernatants are analysed for MPO levels based on a fluorometric detection kit. […]
Histopathology: At study termination, posterior dorsal skin and ear skin samples are collected. […] Severity of lesions are assessed semi quantitatively on a scale of 0-4 by two independent pathologists (0—normal, 1—mild degree, 2—moderate degree, 3—severe degree and 4—extensive or multiple locations) for each parameter in a blinded manner.

SMILES: C[C@@H]1C[C@H]2[C@@H]3CCC4=CC(=O)C=C[C@]4(C)[C@@]3(F)[C@@H](O)C[C@]2(C)[C@@]1(O)C(=O)CO [Dexamethasone]
- MPO activity in ear tissue homogenates (day 6, topical 0.5%): significant inhibition of MPO activity (p<0.001)
- Infiltration, back skin (histopathology) (topical 0.5%, back skin): significant reduction
- Cytokine levels in ear tissue homogenates (topical treatment): significant reduction in most of the cytokines
